Cleaved PARP after 72 h of treatment

From a melanoma drug combination screen (doi:10.1371/journal.pone.0140310); values rounded.

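Human melanoma cells were exposed to two drugs together for 72 h in 1,536-well plates and read by automated microscopy after fixing and staining. Values are the share of nuclei positive for cleaved PARP as a percentage of the same share in the DMSO control: 100 is the control level, higher means more apoptosis. Concentrations were fixed for each drug; these are the higher of two levels. The file gives one value for each pair and line, without errors, so small differences may be noise. The marker varies much from line to line, for technical or biological reasons.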
This is part of the screen, not chosen by result.
A dash means that no value is listed here.

Drugs:
GW441756: Cn1cc(/C=C2\C(=O)Nc3cccnc32)c2ccccc21 at 2 µM
crizotinib: C[C@@H](Oc1cc(-c2cnn(C3CCNCC3)c2)cnc1N)c1c(Cl)ccc(F)c1Cl at 1 µM
AZD7762: NC(=O)Nc1cc(-c2cccc(F)c2)sc1C(=O)N[C@H]1CCCNC1 at 0.1 µM
PD173074: CCN(CC)CCCCNc1ncc2cc(-c3cc(OC)cc(OC)c3)c(NC(=O)NC(C)(C)C)nc2n1 at 0.5 µM
NVP-BEZ235: Cn1c(=O)n(-c2ccc(C(C)(C)C#N)cc2)c2c3cc(-c4cnc5ccccc5c4)ccc3ncc21 at 0.02 µM
LFM-A13: C/C(O)=C(\C#N)C(=O)Nc1cc(Br)ccc1Br at 10 µM
embelin: CCCCCCCCCCCC1=C(O)C(=O)C=C(O)C1=O at 6 µM
vorinostat: O=C(CCCCCCC(=O)Nc1ccccc1)NO at 0.4 µM
OSU-03012: NCC(=O)Nc1ccc(-n2nc(C(F)(F)F)cc2-c2ccc3c(ccc4ccccc43)c2)cc1 at 5 µM
enzastaurin: Cn1cc(C2=C(c3cn(C4CCN(Cc5ccccn5)CC4)c4ccccc34)C(=O)NC2=O)c2ccccc21 at 4 µM

| Pair | RVH-421 | SK-MEL-30 | WM3526 | WM1745 | WM1716 | COLO 792 | MeWo | COLO 829 |
|---|---|---|---|---|---|---|---|---|
| LFM-A13 + GW441756 | 147 | 106 | 68.7 | 118 | 64.6 | 70.5 | 65.1 | 49.9 |
| OSU-03012 + AZD7762 | 93.8 | 1830 | 3830 | 154 | 308 | 249 | 306 | 220 |
| vorinostat + GW441756 | 87.7 | 151 | 74.6 | 200 | 24.2 | 87.0 | 105 | 68.5 |
| LFM-A13 + enzastaurin | 154 | 144 | 115 | - | 425 | 140 | 115 | 213 |
| vorinostat + OSU-03012 | 69.7 | 2580 | 586 | 94.3 | 64.0 | 134 | 72.3 | 111 |
| vorinostat + LFM-A13 | 132 | 214 | 59.7 | 124 | 115 | 91.7 | 111 | 112 |
| crizotinib + NVP-BEZ235 | 49.6 | 221 | 192 | 135 | 92.5 | 91.9 | 103 | 100 |
| GW441756 + crizotinib | 180 | 90.9 | 65.1 | - | 65.1 | 106 | 162 | 81.9 |
| LFM-A13 + crizotinib | 87.9 | 165 | 105 | - | 73.1 | 124 | 104 | 75.9 |
| crizotinib + embelin | 61.9 | 152 | 115 | - | 104 | 129 | 62.1 | 125 |
| crizotinib + vorinostat | 186 | 63.8 | 101 | 131 | 92.0 | 137 | 111 | 162 |
| embelin + GW441756 | 118 | 78.7 | 55.7 | 130 | 99.1 | 111 | 23.6 | 252 |
| NVP-BEZ235 + vorinostat | 76.3 | 311 | 77.5 | 81.8 | 99.1 | 134 | 39.4 | 53.3 |
| PD173074 + GW441756 | 77.1 | 126 | 104 | 159 | 149 | 70.7 | 48.2 | 34.2 |
| OSU-03012 + LFM-A13 | 150 | 465 | 434 | 97.1 | 83.6 | 160 | 100 | 381 |
| crizotinib + AZD7762 | 48.1 | 610 | 1510 | 207 | 262 | 496 | 127 | 54.5 |
| crizotinib + PD173074 | 125 | 177 | 90.5 | - | 117 | 53.5 | 105 | 48.4 |
| enzastaurin + crizotinib | 118 | 61.7 | 200 | 318 | 126 | 131 | 164 | 151 |
| embelin + NVP-BEZ235 | 240 | 142 | 87.4 | - | 46.8 | 173 | 89.4 | 68.6 |
| AZD7762 + LFM-A13 | 32.4 | 241 | 456 | 202 | 152 | 476 | 235 | 86.3 |
| OSU-03012 + GW441756 | 462 | 844 | 125 | 154 | 86.4 | 66.6 | 24.5 | 268 |
| PD173074 + OSU-03012 | 95.6 | 493 | 821 | 134 | 72.7 | 37.5 | 193 | 143 |
| AZD7762 + PD173074 | 74.9 | 410 | 1330 | 221 | 456 | 499 | 304 | 146 |
| embelin + enzastaurin | 208 | 45.2 | 89.7 | - | 145 | 82.8 | 85.8 | 71.2 |
| enzastaurin + NVP-BEZ235 | 65.3 | 174 | 68.8 | 91.0 | 42.3 | 245 | 10.3 | 221 |
| enzastaurin + vorinostat | 36.0 | 134 | 97.4 | 104 | 64.2 | 134 | 119 | 123 |
| embelin + PD173074 | 490 | 72.0 | 49.6 | 107 | 89.9 | 119 | 79.4 | 170 |
| OSU-03012 + NVP-BEZ235 | 38.9 | 1070 | 289 | 520 | 131 | 130 | 62.2 | 140 |
| enzastaurin + GW441756 | 123 | 122 | 168 | - | 146 | 145 | 84.9 | 124 |
| NVP-BEZ235 + PD173074 | 268 | 132 | 115 | - | 109 | 152 | 127 | 144 |
| PD173074 + LFM-A13 | 127 | 105 | 91.3 | 124 | 32.2 | 197 | 72.6 | 78.7 |
| LFM-A13 + embelin | 111 | 112 | 90.6 | 104 | 30.4 | 142 | 158 | 107 |
| enzastaurin + PD173074 | 176 | 90.8 | 149 | - | 44.7 | 105 | 104 | 130 |
| OSU-03012 + embelin | 139 | 1580 | 546 | 162 | 58.8 | 140 | 143 | 229 |
| NVP-BEZ235 + LFM-A13 | 633 | 178 | 201 | - | 64.9 | 68.9 | 143 | 78.2 |
| NVP-BEZ235 + AZD7762 | 209 | 524 | 1170 | 302 | 264 | 468 | 211 | 167 |
| OSU-03012 + enzastaurin | 77.9 | 1550 | 479 | 234 | 213 | 219 | 128 | 281 |
| AZD7762 + embelin | 343 | 319 | 509 | 310 | 238 | 349 | 132 | 205 |
| NVP-BEZ235 + GW441756 | 61.5 | 67.6 | 114 | - | 33.2 | 37.4 | 80.5 | 95.7 |
| AZD7762 + enzastaurin | 193 | 197 | 675 | 248 | 214 | 771 | 553 | 245 |